Test results: PubChem BioAssay AID624297 (National Center for Advancing Translational Sciences (NCATS), 2012)
Among all 340,000 compounds or so, about 6,200 (1.8%) were called active. The shares of active, inactive and inconclusive entries below differ from those in the screen. Calls follow the shape of the dose curve; as a rule, active = well fitted activation curve with a large enough effect; inconclusive = small, poorly fitted or top-dose-only effect; inactive = no such curve, though single readings can be large or run the other way. Potencies of inconclusive entries are doubtful fits and often do not repeat.

Assay: A quantitative high throughput screen for small molecules that induce DNA re-replication in SW480 colon adenocarcinoma cells. Also: nearly all actives have a fitted effect of over 55% in size. As to re-replication activation: % of control where 0% means no effect.
Details: Hoechst DNA content imaging, 48 h; re-replication activation: at 46.1 µM (top of the series) unless noted
In short: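 Per well, 250 cells were exposed to pinned compound for 48 hr. Nuclear DNA was visualised with Hoechst (40 min, 37 C) and total object intensity recorded by fluorescence scanning.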
Potency is read from the fitted curve at half-maximal effect.

Row | SMILES | re-replication activation | Potency
1 | COc1cccc(CN(C)C(=O)c2cccc(OC3CCN(C4CCCC4)CC3)c2)c1 | inactive: -0.135% | 
2 | CC(C)c1ccc(C(O)Cc2nc3ccccc3n2C)cc1 (configuration not stated) | inactive: 7.39% | 
3 | COc1ccc(-n2ncc(S(=O)(=O)c3ccccc3)c2-c2ccc(Cl)cc2)cc1 |  | inconclusive: 13 µM [activator, single point]
4 | O=C(Nc1ccc2oc(=O)ccc2c1)c1cc2ccccc2o1 | inactive: 4.5% | 
5 | O=c1nc(N/N=C/c2c[nH]c3ccccc23)cn[nH]1 | inactive: -2.19% | 
6 | O=C(Nc1ccc(Cn2cccn2)cc1)c1ccc(COc2ccccc2Br)cc1 |  | inconclusive: 20.6 µM [activator, single point]
7 | O=C(CCN1C(=O)/C(=C/c2ccccc2)SC1=S)N1CCCCCC1 |  | inconclusive: 29.1 µM [activator, single point]
8 | COc1ccc(Nc2nc(-c3ccccc3)nc3ccccc23)c(OC)c1 |  | inconclusive: 18.4 µM [activator, single point]
9 | CC(=O)c1ccc(-c2ccc(C(=O)NC3CC(C)(C)NC(C)(C)C3)o2)cc1 | inactive: -3.12% | 
10 | O=C(N/N=C/c1cn(Cc2cccc(F)c2)c2ccccc12)c1cc(O)cc(O)c1 | inactive: -13.9% | 
11 | COc1ccc(NC(=O)Cn2c(C)csc2=O)c(OC)c1 |  | inconclusive: 29.1 µM [activator, single point]
13 | Cc1cccc(N2CCN(C(=O)COc3ccc4c(c3)CCC4)CC2)c1C | inactive: -71.5% | 
14 | CCOC(=O)c1cnc(-c2ccccc2)nc1-c1ccccc1 | inactive: -1.89% | 
15 | O=C(c1ccc(Cl)cc1)c1cc([N+](=O)[O-])ccc1N1CCOCC1 |  | active: 0.651 µM
16 | Cc1cc(C(=O)N/N=C/C=C/c2ccccc2)n[nH]1 |  | inconclusive: 29.1 µM [activator, single point]
17 | Cc1ccc(S(=O)(=O)NCC(=O)OCC(=O)NCc2ccc(F)cc2)cc1 |  | inconclusive: 18.4 µM [activator, partial curve, poor fit]
18 | CCC(CC)CN1CCN=C1N(C)C | inactive: -0.525% | 
19 | Brc1ccc(-c2ccc(/C=N/Nc3nc(N4CCOCC4)nc(N4CCOCC4)n3)o2)cc1 |  | inconclusive: 18.4 µM [activator, single point]
20 | COc1ccccc1OCC(=O)N/N=C/c1cccc2cccnc12 |  | inconclusive: 20.6 µM [activator, single point]
21 | CCOC(=O)c1c(CSc2ccccc2)n(C)c2cc(Br)c(OC)c(O)c12 | inactive: -20.5% | 
22 | COc1cccc(CC(=O)Nc2ccc(F)c(S(=O)(=O)N3CCOCC3)c2)c1 |  | inconclusive: 18.4 µM [activator, partial curve, poor fit]

From entry 3 up to 4, as listed above:
Row | SMILES | re-replication activation | Potency
3 | COc1ccc(-n2ncc(S(=O)(=O)c3ccccc3)c2-c2ccc(Cl)cc2)cc1 |  | inconclusive: 13 µM [activator, single point]
4 | O=C(Nc1ccc2oc(=O)ccc2c1)c1cc2ccccc2o1 | inactive: 4.5% | 
